{"source": "patent US12091402B2", "about": "(Avilar Therapeutics, Inc., priority 2021, dated 2024)", "key": {"[1]": {"experiment": "general procedure: Fmoc solid-phase peptide synthesis; AM Resin (0.30 mmol/g); CTC Resin; HBTU/DIEA"}, "[2]": {"experiment": "general procedure: Fmoc solid-phase peptide synthesis; CTC resin; HBTU/DIEA", "settings": "whole synthesis, scale 0.5 mmol"}}, "data": [{"substance": "3-[(1R,4S,7S,10S,13S,19S,22S,25S,28S,31R,34S,40R,44R,46S,49S)-44-amino-49-(carboxymethyl)-34-[(1R)-1-hydroxyethyl]-10-(1H-imidazol-5-ylmethyl)-7,28-bis(1H-indol-3-ylmethyl)-13,22-diisobutyl-25-isopropyl-4-methyl-2,5,8,11,14,17,20,23,26,29,32,35,41,47,50-pentadecaoxo-53,54-dithia-3,6,9,12,15,18,21,24,27,30,33,36,42,48,51-pentadecazatetracyclo[29.20.4.036,40.042,46]pentapentacontan-19-yl]propanoic acid", "values": [{"measurement": "final purity (method not given)", "setting": "[1]; oxidative folding step", "value": 91.06, "unit": "% purity"}, {"measurement": "oxidative folding yield", "setting": "[1]; oxidative folding step", "value": 19.7, "unit": "% yield"}, {"measurement": "final purity (method not given)", "setting": "[1]; whole synthesis", "value": 95.2, "unit": "% purity"}, {"measurement": "isolated yield", "setting": "[1]; whole synthesis, overall", "value": "total yield 5.0%"}, {"measurement": "isolated mass", "setting": "[1]; whole synthesis, scale 0.5 mmol", "value": 42.7, "unit": "mg"}, {"measurement": "crude mass", "setting": "[2]", "value": "190.0 mg, crude"}]}, {"substance": "(S)-3-(((4R,7S,10S,13S,16S,22S,25S,28S,31S,34R)-25-((1H-imidazol-5-yl)methyl)-7,28-bis((1H-indol-3-yl)methyl)-4-(((2S,3R)-1-amino-3-hydroxy-1-oxobutan-2-yl)carbamoyl)-16-(2-carboxyethyl)-13,22-diisobutyl-10-isopropyl-31-methyl-6,9,12,15,18,21,24,27,30,33-decaoxo-1,2-dithia-5,8,11,14,17,20,23,26,29,32-decaazacyclopentatriacontan-34-yl)carbamoyl)-5,21-dioxo-8,11,14,17-tetraoxa-4,20-diazahexacos-25-yn-1-oic acid", "values": [{"measurement": "final purity (method not given)", "setting": "[1]; whole synthesis", "value": 95.1, "unit": "% purity"}, {"measurement": "isolated yield", "setting": "[1]; whole synthesis", "value": 14.99, "unit": "% yield"}]}, {"substance": "(S)-3-(((4R,7S,10S,13S,16S,22S,25S,28S,31S,34R)-25-((1H-imidazol-5-yl)methyl)-7,28-bis((1H-indol-3-yl)methyl)-4-(((2S,3R)-1-amino-3-hydroxy-1-oxobutan-2-yl)carbamoyl)-16-(2-carboxyethyl)-13,22-diisobutyl-10-isopropyl-31-methyl-6,9,12,15,18,21,24,27,30,33-decaoxo-1,2-dithia-5,8,11,14,17,20,23,26,29,32-decaazacyclopentatriacontan-34-yl)carbamoyl)-20-oxo-7,10,13,16-tetraoxa-4,19-diazapentacos-24-ynoic acid", "values": [{"measurement": "final purity (method not given)", "setting": "[1]; whole synthesis", "value": 95.2, "unit": "% purity"}, {"measurement": "isolated yield", "setting": "[1]; whole synthesis", "value": 19.13, "unit": "%"}]}]}
